Source: patent US11490623B2, “Oral care compositions and methods for anti-attachment polymers and coatings” (Colgate-Palmolive Company, priority 2016, dated 2022)

System: Lactobacillus casei, Fusobacterium nucleatum, Streptococcus oralis, Veillonella parvula, and Actinomyces viscosus
Test: Short Interval Kill Treatment (SIKT) assay
Conditions: 1% polymer or […] CPC, 37° C., 2 minutes

Question: How did the “% Killed (Live-Dead Stain)” value turn out when `CCCCCCCCCCCCCCCC[n+]1ccccc1` [CPC, cetylpyridinium chloride] was run?
Answer: Its value is 98.85%.
